Source: PMC3347604
No constants are given. Whether binding was seen depends on the method and setting. In cells and extracts the contact can be indirect. Some entries that bind do so weakly or less than the wild type.

Columns and labels:
Rabin8 = biological target: T1, Rabin8 (UniProt Q96QF0); assay: co-IP; HEK293 lysates (Rabin8 and Myc-Rheb co-transfected) precipitated with anti-Rabin8 antibody, 12 h at 4 C, protein-A-agarose; immunoblot with anti-Myc; cells in medium with growth factors, without growth factors, or after short-term stimulation
T1 sequence: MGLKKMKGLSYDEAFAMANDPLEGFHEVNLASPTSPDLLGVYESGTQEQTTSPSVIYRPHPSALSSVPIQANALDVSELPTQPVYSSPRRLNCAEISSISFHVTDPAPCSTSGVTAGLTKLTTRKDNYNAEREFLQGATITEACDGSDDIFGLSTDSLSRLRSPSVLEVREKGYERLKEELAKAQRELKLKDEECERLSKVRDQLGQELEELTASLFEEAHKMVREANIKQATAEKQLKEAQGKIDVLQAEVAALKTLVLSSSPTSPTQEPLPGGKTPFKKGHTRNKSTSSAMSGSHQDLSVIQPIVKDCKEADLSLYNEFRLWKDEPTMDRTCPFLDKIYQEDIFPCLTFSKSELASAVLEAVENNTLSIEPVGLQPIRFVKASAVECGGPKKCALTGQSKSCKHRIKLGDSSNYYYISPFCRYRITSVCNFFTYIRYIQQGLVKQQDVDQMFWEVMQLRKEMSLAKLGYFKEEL

Myc-Rheb fusion protein [1] = biological target: Myc-Rheb fusion protein (UniProt Q15382); assay: condition: only cells in medium without growth factors; co-IP; as a2 (anti-Myc precipitation, immunoblot with anti-Rabin8 and anti-mTOR), but cells grown in medium without growth factors
Myc-Rheb fusion protein [2] = biological target: Myc-Rheb fusion protein (UniProt Q15382); assay: co-IP; HEK293 lysates (Rabin8 and Myc-Rheb co-transfected) precipitated with anti-Myc antibody, 12 h at 4 C, protein-A-agarose; immunoblot with anti-Rabin8 and anti-mTOR; cells in medium with growth factors or after short-term stimulation

Molecule	binding (Rabin8)	binding (Myc-Rheb fusion protein [1])	binding (Myc-Rheb fusion protein [2])
Myc-Rheb fusion protein (from UniProt Q15382 1-184) (enzyme)	binds		
Rabin8 (protein, UniProt Q96QF0 1-476) MGLKKMKGLSYDEAFAMANDPLEGFHEVNLASPTSPDLLGVYESGTQEQTTSPSVIYRPHPSALSSVPIQANALDVSELPTQPVYSSPRRLNCAEISSISFHVTDPAPCSTSGVTAGLTKLTTRKDNYNAEREFLQGATITEACDGSDDIFGLSTDSLSRLRSPSVLEVREKGYERLKEELAKAQRELKLKDEECERLSKVRDQLGQELEELTASLFEEAHKMVREANIKQATAEKQLKEAQGKIDVLQAEVAALKTLVLSSSPTSPTQEPLPGGKTPFKKGHTRNKSTSSAMSGSHQDLSVIQPIVKDCKEADLSLYNEFRLWKDEPTMDRTCPFLDKIYQEDIFPCLTFSKSELASAVLEAVENNTLSIEPVGLQPIRFVKASAVECGGPKKCALTGQSKSCKHRIKLGDSSNYYYISPFCRYRITSVCNFFTYIRYIQQGLVKQQDVDQMFWEVMQLRKEMSLAKLGYFKEEL		no binding	binds
